Structures were worked out from names or drawings and are uncertain.
Key:
HL-60 = assay: Cell proliferation assay (ATPlite 1Step), single agents and combination with Compound A, curve-shift and CI; 72 h culture, 120 h for EPZ-6438, JQ1, MLN-4924, MLN-7243, MPI-0479605, NMS-P715
NCI-H661 = assay: as above
[1] = blending ratio (Compound A : combined compound) 1:4, Fa 50
[2] = blending ratio (Compound A : combined compound) 4:1, Fa 50
[3] = blending ratio (Compound A : combined compound) 4:1, Fa 75

Q: Which CI (HL-60; [1]) does the source give for `Cc1c2oc3c(C)ccc(C(=O)N[C@@H]4C(=O)N[C@H](C(C)C)C(=O)N5CCC[C@H]5C(=O)N(C)CC(=O)N(C)[C@@H](C(C)C)C(=O)O[C@@H]4C)c3nc-2c(C(=O)N[C@@H]2C(=O)N[C@H](C(C)C)C(=O)N3CCC[C@H]3C(=O)N(C)CC(=O)N(C)[C@@H](C(C)C)C(=O)O[C@@H]2C)c(N)c1=O` here?
A: Its CI is 1.04.

Q: What about the CI (HL-60; [2]) of the same molecule?
A: Its CI is 0.91.

Q: What about the CI (HL-60; [3]) of the same molecule?
A: Its CI is 1.04.

Q: What about the CI (NCI-H661; blending ratio (Compound A : combined compound) 1:1, Fa 50) of the same molecule?
A: Its CI is 0.94.

Q: And the CI (NCI-H661; blending ratio (Compound A : combined compound) 1:1, Fa 90)?
A: Its CI is 0.60.

Q: And the CI (NCI-H661; [1])?
A: Its CI is 0.94.

Q: What about the CI (NCI-H661; [2]) of the same molecule?
A: The CI was 0.93.

Q: What about the CI (NCI-H661; [3]) of the same molecule?
A: The CI was 0.24.

Q: And the CI (NCI-H661; blending ratio (Compound A : combined compound) 4:1, Fa 90)?
A: The CI was 0.17.

Q: `O=C(O)CSc1cc(NS(=O)(=O)c2ccc(Br)cc2)c2ccccc2c1O` was tested. Which CI (HL-60; Compound A + combined compound at fixed concentration 1 µM, Fa 90) did it give?
A: The CI was 0.75.

Reference: EP4840453A1, “CANCER TREATMENT AGENT CONTAINING CLK INHIBITOR AS ACTIVE INGREDIENT” (dated 2026)
